Reference: the supplement of paper PMC6411743
± gives the standard deviation of the averaged measurements. Some of the results follow.

The chains behind the UniProt entries cited, without tags or fusion partners. Where a name states a change or a piece, a line headed by the entry shows the natural chain unless it says otherwise.
UniProt Q9BUQ8: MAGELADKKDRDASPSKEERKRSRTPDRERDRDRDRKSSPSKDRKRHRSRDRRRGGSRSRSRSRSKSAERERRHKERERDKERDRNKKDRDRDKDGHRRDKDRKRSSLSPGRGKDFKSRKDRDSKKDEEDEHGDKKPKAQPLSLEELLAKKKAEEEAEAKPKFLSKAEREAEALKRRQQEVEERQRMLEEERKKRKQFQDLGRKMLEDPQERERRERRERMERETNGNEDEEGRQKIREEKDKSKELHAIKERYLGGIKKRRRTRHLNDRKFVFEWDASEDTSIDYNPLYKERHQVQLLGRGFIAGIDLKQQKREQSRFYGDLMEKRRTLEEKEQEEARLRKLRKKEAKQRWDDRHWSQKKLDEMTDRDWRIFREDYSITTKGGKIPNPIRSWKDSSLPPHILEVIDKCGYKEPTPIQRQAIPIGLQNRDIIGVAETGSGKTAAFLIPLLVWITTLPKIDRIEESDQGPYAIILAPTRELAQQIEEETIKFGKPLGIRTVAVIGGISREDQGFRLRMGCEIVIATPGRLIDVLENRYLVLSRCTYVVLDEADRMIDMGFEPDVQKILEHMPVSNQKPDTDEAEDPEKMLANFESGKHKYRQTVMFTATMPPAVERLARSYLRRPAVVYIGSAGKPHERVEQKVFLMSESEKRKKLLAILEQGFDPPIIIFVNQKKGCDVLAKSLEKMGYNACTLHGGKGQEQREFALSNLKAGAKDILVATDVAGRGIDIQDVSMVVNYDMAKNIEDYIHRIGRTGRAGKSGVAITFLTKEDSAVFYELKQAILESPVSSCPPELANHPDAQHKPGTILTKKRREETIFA
UniProt Q9BXI6: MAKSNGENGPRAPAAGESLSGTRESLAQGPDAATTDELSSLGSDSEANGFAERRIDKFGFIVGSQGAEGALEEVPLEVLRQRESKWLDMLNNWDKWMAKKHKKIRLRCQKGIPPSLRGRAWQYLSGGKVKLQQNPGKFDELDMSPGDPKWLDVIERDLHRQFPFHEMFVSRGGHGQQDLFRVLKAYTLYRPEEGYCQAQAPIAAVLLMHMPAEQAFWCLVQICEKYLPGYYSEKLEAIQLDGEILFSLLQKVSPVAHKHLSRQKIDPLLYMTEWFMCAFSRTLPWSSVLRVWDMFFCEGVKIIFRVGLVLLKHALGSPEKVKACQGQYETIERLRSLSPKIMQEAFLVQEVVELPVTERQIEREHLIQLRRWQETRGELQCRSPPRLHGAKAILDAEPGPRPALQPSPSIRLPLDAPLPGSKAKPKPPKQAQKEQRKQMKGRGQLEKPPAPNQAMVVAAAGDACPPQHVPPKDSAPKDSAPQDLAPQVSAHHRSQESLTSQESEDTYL
UniProt Q9BR76, whole entry: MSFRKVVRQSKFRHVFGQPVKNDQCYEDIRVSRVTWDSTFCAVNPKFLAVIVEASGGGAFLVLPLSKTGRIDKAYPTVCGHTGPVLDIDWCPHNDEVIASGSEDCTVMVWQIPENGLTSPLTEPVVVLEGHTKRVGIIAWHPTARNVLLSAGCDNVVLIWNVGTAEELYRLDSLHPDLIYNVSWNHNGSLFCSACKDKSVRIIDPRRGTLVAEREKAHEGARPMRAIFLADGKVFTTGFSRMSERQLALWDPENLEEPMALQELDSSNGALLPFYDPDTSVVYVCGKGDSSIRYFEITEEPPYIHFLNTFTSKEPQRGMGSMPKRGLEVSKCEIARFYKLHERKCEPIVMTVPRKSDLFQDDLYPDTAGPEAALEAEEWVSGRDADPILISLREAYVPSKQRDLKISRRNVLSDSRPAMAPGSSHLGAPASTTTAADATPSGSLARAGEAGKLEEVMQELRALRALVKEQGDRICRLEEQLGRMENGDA
UniProt Q9BTE1, whole entry: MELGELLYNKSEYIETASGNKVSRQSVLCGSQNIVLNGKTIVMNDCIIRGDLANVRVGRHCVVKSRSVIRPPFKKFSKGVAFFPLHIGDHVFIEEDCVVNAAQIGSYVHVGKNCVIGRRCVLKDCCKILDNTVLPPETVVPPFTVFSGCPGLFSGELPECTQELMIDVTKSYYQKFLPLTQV
UniProt Q9BRF8, whole entry: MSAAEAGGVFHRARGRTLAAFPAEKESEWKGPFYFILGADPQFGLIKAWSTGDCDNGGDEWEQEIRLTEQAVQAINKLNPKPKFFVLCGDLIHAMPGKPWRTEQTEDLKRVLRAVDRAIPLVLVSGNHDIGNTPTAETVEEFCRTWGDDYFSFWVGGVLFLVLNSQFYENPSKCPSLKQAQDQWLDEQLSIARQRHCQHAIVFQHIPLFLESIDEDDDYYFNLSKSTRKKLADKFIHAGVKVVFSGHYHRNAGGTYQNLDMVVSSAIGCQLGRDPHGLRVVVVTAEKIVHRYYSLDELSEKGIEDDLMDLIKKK
UniProt Q96S55: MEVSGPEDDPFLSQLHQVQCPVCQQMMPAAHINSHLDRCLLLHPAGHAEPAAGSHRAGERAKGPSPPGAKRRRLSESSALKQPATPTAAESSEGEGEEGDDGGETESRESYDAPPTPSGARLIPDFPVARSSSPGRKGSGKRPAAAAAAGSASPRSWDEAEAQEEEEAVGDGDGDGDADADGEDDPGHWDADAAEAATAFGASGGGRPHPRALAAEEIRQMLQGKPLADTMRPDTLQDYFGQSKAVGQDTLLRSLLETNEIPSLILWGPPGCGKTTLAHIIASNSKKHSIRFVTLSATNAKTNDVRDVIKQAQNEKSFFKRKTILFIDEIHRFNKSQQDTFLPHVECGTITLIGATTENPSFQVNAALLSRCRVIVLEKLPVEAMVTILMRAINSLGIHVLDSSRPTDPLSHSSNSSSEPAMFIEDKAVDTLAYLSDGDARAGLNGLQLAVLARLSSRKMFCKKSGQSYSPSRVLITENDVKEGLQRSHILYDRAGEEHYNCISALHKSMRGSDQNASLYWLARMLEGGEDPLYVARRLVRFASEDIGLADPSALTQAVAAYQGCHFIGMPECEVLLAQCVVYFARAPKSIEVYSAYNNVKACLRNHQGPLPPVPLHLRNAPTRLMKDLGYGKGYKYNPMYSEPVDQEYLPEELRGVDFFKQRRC
UniProt Q96T23: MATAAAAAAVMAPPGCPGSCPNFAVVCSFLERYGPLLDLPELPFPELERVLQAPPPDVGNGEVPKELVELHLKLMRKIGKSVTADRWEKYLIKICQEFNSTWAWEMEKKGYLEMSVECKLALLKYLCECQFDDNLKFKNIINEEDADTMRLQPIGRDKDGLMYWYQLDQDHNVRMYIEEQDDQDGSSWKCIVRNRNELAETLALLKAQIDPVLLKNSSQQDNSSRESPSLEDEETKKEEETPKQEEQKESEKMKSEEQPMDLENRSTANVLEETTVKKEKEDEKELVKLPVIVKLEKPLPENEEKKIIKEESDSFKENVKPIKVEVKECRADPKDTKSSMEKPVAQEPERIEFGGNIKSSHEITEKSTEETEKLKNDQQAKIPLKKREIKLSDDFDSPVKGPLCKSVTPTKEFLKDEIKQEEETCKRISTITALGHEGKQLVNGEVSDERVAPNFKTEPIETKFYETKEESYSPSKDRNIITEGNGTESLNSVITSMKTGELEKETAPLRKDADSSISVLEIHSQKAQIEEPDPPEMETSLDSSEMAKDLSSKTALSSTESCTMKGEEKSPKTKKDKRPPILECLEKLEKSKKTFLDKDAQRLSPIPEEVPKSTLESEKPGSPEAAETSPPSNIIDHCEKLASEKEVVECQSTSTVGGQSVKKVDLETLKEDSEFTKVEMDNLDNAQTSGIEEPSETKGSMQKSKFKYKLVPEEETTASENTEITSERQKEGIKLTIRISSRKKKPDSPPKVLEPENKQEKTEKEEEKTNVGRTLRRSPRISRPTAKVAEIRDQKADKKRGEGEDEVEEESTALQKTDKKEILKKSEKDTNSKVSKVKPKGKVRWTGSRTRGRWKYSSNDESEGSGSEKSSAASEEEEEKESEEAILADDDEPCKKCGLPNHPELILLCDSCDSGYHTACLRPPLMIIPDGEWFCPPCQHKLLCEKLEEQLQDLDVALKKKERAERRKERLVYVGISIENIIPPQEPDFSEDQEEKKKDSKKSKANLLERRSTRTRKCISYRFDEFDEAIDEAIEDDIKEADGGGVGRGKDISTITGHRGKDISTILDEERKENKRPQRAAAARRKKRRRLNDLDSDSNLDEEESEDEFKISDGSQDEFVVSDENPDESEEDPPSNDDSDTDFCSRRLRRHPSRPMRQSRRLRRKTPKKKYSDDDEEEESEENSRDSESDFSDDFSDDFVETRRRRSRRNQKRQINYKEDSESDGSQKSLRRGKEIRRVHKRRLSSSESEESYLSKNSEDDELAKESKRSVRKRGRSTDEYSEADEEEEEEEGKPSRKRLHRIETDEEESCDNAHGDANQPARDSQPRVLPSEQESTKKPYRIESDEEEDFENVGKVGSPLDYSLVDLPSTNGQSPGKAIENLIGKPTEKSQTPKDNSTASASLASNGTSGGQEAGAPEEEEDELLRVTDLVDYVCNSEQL
UniProt Q9BYT8, whole entry, looked up: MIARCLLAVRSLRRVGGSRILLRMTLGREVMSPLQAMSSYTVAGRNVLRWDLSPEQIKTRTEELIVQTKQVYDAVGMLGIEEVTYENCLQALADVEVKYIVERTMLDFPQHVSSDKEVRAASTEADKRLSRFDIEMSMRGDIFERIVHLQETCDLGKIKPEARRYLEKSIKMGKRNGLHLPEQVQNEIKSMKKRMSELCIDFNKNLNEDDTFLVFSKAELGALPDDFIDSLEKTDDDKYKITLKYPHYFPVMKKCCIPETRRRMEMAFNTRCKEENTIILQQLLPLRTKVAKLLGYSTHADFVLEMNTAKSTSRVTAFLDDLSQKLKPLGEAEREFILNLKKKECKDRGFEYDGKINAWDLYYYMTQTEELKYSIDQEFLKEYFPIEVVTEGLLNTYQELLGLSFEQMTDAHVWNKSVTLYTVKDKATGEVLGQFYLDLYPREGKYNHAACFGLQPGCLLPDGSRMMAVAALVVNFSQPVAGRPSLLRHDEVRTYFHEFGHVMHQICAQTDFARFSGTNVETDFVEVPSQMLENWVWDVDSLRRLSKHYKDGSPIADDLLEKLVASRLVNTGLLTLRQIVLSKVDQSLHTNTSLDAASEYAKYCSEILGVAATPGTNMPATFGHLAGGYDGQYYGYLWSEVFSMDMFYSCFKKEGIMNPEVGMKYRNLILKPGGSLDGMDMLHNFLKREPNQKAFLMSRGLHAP
UniProt Q9BT73: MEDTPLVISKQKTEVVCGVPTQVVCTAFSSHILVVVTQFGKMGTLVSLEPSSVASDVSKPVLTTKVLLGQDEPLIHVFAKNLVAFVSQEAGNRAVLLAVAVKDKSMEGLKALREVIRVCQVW
UniProt Q99816: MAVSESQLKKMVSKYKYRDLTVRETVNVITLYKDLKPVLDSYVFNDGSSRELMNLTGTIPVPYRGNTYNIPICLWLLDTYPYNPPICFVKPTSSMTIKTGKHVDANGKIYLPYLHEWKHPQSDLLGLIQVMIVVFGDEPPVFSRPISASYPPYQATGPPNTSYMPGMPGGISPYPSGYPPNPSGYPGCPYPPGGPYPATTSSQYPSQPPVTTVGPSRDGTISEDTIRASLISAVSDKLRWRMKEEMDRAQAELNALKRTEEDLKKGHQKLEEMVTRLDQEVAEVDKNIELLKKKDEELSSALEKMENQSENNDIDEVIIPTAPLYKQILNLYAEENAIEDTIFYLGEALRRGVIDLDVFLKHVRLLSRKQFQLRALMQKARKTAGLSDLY
UniProt Q99747: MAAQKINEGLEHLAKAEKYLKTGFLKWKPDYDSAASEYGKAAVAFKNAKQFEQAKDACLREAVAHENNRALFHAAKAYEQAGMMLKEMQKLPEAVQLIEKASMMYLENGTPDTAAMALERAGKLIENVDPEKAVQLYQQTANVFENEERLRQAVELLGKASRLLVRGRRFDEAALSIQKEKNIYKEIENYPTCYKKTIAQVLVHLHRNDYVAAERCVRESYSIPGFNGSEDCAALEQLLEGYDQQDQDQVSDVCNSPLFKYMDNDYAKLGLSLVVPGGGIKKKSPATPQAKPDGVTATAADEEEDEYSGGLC
UniProt Q9BX40: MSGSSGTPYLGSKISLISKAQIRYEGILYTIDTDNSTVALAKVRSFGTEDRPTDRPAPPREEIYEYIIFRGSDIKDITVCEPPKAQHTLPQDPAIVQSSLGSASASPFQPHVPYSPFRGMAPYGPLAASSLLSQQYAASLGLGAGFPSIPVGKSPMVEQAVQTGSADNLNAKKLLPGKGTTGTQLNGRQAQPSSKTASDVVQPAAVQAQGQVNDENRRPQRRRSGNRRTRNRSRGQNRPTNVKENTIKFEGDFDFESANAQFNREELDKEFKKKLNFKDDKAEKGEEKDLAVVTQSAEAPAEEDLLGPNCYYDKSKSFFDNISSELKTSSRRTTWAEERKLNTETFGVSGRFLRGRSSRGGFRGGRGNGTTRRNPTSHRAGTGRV
UniProt Q99942: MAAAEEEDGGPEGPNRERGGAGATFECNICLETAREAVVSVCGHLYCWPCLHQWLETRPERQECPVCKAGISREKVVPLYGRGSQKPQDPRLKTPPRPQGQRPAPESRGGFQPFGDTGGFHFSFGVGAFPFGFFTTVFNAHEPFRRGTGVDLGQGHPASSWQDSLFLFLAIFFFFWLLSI

Compound: Nc1nc2c(ncn2[C@@H]2O[C@H](COP(=O)(O)OP(=O)(O)OP(=O)(O)O)[C@@H](O)[C@H]2O)c(=O)[nH]1 [guanosine triphosphate]
Assay: NP40-soluble protein abundance relative to vehicle (solubility fold change) (ratio); higher = more soluble protein in presence of GTP
How it was run: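 In three independent experiments, Jurkat crude lysate made by Dounce homogenisation was treated for 10 min at room temperature and then 3 min at 37 °C with eight concentrations ranging from 0.1 to 10 mM. It was then solubilised with 0.8% NP40 plus benzonase for 60 min at 4 °C and ultracentrifuged. The supernatant was TMT-labelled for LC-MS/MS, and each value is the fold change against the detergent-processed vehicle for the same replicate, using vsn-normalised intensities.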

Target	NP40-soluble protein abundance (concentration: 0.1mM)	NP40-soluble protein abundance (concentration: 0.5mM)	NP40-soluble protein abundance (concentration: 1mM)	NP40-soluble protein abundance (concentration: 2mM)	NP40-soluble protein abundance (concentration: 4mM)	NP40-soluble protein abundance (concentration: 6mM)	NP40-soluble protein abundance (concentration: 8mM)	NP40-soluble protein abundance (concentration: 10mM)
DDX23 (UniProt Q9BUQ8)	1.04 ± 0.036	1.09 ± 0.067	1.19 ± 0.12	1.27 ± 0.075	1.55 ± 0.18	1.62 ± 0.19	1.89 ± 0.28	1.93 ± 0.23
UniProt Q99549 and related entries	0.982 ± 0.069	1.04 ± 0.078	1.04 ± 0.04	1.07 ± 0.075	1.06 ± 0.023	1.13 ± 0.013	1.15 ± 0.048	1.21 ± 0.072
UniProt Q9BXI6 and related entries	1.04 ± 0.017	0.983 ± 0.039	1 ± 0.035	0.982 ± 0.054	0.97 ± 0.077	0.929 ± 0.032	1.01 ± 0.033	0.957 ± 0.04
UniProt Q96RG2 and related entries	1.1 ± 0.14	1.01 ± 0.082	1.14 ± 0.13	1.16 ± 0.15	1.14 ± 0.1	1.21 ± 0.14	1.24 ± 0.19	1.25 ± 0.27
UniProt Q9BUB5 and related entries	0.971 ± 0.094	1.04 ± 0.022	0.987 ± 0.052	0.972 ± 0.042	0.947 ± 0.087	0.968 ± 0.051	0.975 ± 0.13	0.964 ± 0.026
CORO1B (UniProt Q9BR76)	0.991 ± 0.032	1.06 ± 0.032	1.03 ± 0.036	1.05 ± 0.013	1.02 ± 0.069	1.08 ± 0.052	1.07 ± 0.024	1.05 ± 0.061
DCTN5 (UniProt Q9BTE1)	1.07 ± 0.073	1.05 ± 0.12	0.999 ± 0.11	1.04 ± 0.16	1.04 ± 0.17	1.06 ± 0.17	1.03 ± 0.15	1 ± 0.16
UniProt Q96S19	1.07 ± 0.043	0.988 ± 0.012	0.954 ± 0.039	0.981 ± 0.079	0.952 ± 0.076	0.919 ± 0.081	0.917 ± 0.024	0.892 ± 0.052
UniProt Q96SN8 and related entries	1.02 ± 0.076	1.07 ± 0.051	1.1 ± 0.097	1.1 ± 0.035	1.18 ± 0.044	1.17 ± 0.04	1.2 ± 0.12	1.13 ± 0.08
CPPED1 (UniProt Q9BRF8)	1.03 ± 0.021	0.979 ± 0.054	0.94 ± 0.09	0.907 ± 0.093	0.923 ± 0.06	0.872 ± 0.094	0.89 ± 0.084	0.813 ± 0.13
TCF25 (UniProt Q9BQ70)	1.02 ± 0.053	1.02 ± 0.14	1.04 ± 0.072	1.07 ± 0.15	1.12 ± 0.13	1.03 ± 0.057	1.12 ± 0.19	1.2 ± 0.17
UniProt Q96RU2-2	1.04 ± 0.12	0.994 ± 0.2	1.08 ± 0.15	1.05 ± 0.14	1.13 ± 0.2	1.06 ± 0.17	1.21 ± 0.16	1.14 ± 0.16
UniProt Q96S55 and related entries	1 ± 0.044	1.01 ± 0.031	0.979 ± 0.047	1.01 ± 0.057	1.02 ± 0.057	1.02 ± 0.074	1.03 ± 0.086	1.02 ± 0.098
UniProt Q96Q45 and related entries	0.881 ± 0.076	0.841 ± 0.16	0.903 ± 0.16	0.877 ± 0.091	0.869 ± 0.045	0.857 ± 0.19	0.965 ± 0.12	1.01 ± 0.042
MED18 (UniProt Q9BUE0)	1.04 ± 0.047	1.02 ± 0.012	1.02 ± 0.026	1.045 ± 0.005	1.01 ± 0.021	1.04 ± 0.016	1.01 ± 0.025	0.979 ± 0.02
UniProt Q96RT1 and related entries	0.966 ± 0.016	0.978 ± 0.031	0.99 ± 0.03	0.97 ± 0.054	0.972 ± 0.027	1 ± 0.031	1.01 ± 0.046	1.03 ± 0.072
UniProt Q96T23 and related entries	1.02 ± 0.028	1.09 ± 0.081	1.25 ± 0.014	1.45 ± 0.1	1.72 ± 0.22	2.07 ± 0.29	2.49 ± 0.49	2.71 ± 0.62
FAM111A (UniProt Q96PZ2)	1.01 ± 0.1	0.987 ± 0.078	1.06 ± 0.049	1.15 ± 0.047	1.1 ± 0.08	1.13 ± 0.15	1.23 ± 0.034	1.21 ± 0.091
UniProt Q9BXP5 and related entries	0.96 ± 0.061	0.998 ± 0.059	1.04 ± 0.048	1.04 ± 0.081	1.1 ± 0.09	1.12 ± 0.09	1.18 ± 0.15	1.16 ± 0.15
NLN (UniProt Q9BYT8)	1.07 ± 0.088	1.05 ± 0.097	0.949 ± 0.04	0.971 ± 0.087	0.962 ± 0.074	0.933 ± 0.051	0.887 ± 0.036	0.858 ± 0.073
PSMG3 (UniProt Q9BT73)	1.03 ± 0.027	1.09 ± 0.083	1.09 ± 0.058	1.07 ± 0.042	1.08 ± 0.054	0.999 ± 0.087	1.14 ± 0.087	1.04 ± 0.042
TSG101 (UniProt Q99816)	0.915 ± 0.046	0.894 ± 0.059	0.952 ± 0.065	0.925 ± 0.083	0.94 ± 0.079	0.932 ± 0.075	0.884 ± 0.1	0.921 ± 0.066
PSMB7 (UniProt Q99436)	0.958 ± 0.064	1.08 ± 0.12	1 ± 0.12	1.06 ± 0.15	1.01 ± 0.14	1.11 ± 0.18	1.01 ± 0.16	1.05 ± 0.17
DHRS1 (UniProt Q96LJ7)	1.04 ± 0.054	0.998 ± 0.067	0.987 ± 0.12	0.958 ± 0.078	0.946 ± 0.089	0.97 ± 0.093	0.921 ± 0.076	0.926 ± 0.095
UniProt Q96RR4 and related entries	1.07 ± 0.067	1.03 ± 0.031	1.09 ± 0.09	1.02 ± 0.054	1.02 ± 0.072	1.02 ± 0.12	0.981 ± 0.035	1.02 ± 0.062
NAPG (UniProt Q99747)	0.877 ± 0.014	0.878 ± 0.078	0.981 ± 0.057	0.944 ± 0.1	0.908 ± 0.084	0.952 ± 0.085	0.884 ± 0.077	0.945 ± 0.11
UniProt Q9BX40 and related entries	0.984 ± 0.057	0.997 ± 0.064	1.11 ± 0.065	1.15 ± 0.057	1.18 ± 0.064	1.2 ± 0.03	1.23 ± 0.034	1.24 ± 0.069
UniProt Q9BQ52 and related entries	1.009 ± 0.0066	1.01 ± 0.031	0.949 ± 0.025	0.954 ± 0.018	0.9477 ± 0.0043	0.922 ± 0.016	0.92 ± 0.03	0.904 ± 0.02
RNF5 (UniProt Q99942)	0.966 ± 0.028	0.984 ± 0.022	0.964 ± 0.037	0.9429 ± 0.0026	0.954 ± 0.051	0.958 ± 0.065	0.9927 ± 0.0083	1.01 ± 0.072
UniProt Q9BRP8-2|Q9BRP8	1.07 ± 0.15	1.05 ± 0.09	1.13 ± 0.12	1.11 ± 0.14	1.04 ± 0.11	1.14 ± 0.15	1.1 ± 0.16	1.13 ± 0.14

Copied from the list.
Value of UniProt Q96RR4 and related entries under NP40-soluble protein abundance (concentration: 1mM): 1.09 ± 0.09
Value of PSMB7 (UniProt Q99436) under NP40-soluble protein abundance (concentration: 0.1mM): 0.958 ± 0.064
